From PMC10604407 come the findings set out here.

These are yes or no findings as the source states them, for the method shown. Binding seen in cells or lysates may run through a third protein. Some entries that bind do so weakly or less than the wild type. Sequences can lack the tags named with a protein.

Assay [1] deals with T1, 3HA-PREB (human prolactin regulatory element binding protein) (human) (UniProt Q9HCU5).
T1 sequence: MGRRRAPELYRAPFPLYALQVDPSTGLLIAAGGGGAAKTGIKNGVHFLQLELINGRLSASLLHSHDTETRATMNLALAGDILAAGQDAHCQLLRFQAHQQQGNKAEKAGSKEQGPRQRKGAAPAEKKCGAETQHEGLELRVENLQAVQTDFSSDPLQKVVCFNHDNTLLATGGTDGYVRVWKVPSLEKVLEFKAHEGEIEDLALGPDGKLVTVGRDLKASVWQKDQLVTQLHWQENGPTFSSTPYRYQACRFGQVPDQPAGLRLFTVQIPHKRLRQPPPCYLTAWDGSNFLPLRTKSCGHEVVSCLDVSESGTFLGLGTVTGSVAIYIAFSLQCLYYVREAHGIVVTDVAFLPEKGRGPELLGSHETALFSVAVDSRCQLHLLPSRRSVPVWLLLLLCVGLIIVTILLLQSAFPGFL
Nature of the assay: co-IP; HEK293T cells co-transfected, 48 h; lysis buffer 50 mM Tris-HCl pH 8.0, 150 mM NaCl, 1% NP-40; lysates with antibodies 3 h, Protein A-agarose 4 °C 3 h, six washes; in Fig. 6B precipitation with HA antibodies, blots with HA and Flag antibodies.

Assay [2] deals with 3HA-PREB (86–328 aa) (human) (UniProt Q9HCU5). The description is as above.

B1: Flag-Tas (prototype foamy virus Tas) (protein, UniProt P14353 1-300)
chain: MDSYEKEESVASTSGIQDLQTLSELVGPENAGEGELTIAEEPEENPRRPRRYTKREVKCVSYHAYKEIEDKHPQHIKLQDWIPTPEEMSKSLCKRLILCGLYSAEKASEILRMPFTVSWEQSDTDPDCFIVSYTCIFCDAVIHDPMPIRWDPEVGIWVKYKPLRGIVGSAVFIMHKHQRNCSLVKPSTSCSEGPKPRPRHDPVLRCDMFEKHHKPRQKRPRRRSIDNESCASSSDTMANEPGSLCTNPLWNPGPLLSGLLEESSNLPNLEVHMSGGPFWEEVYGDSILGPPSGSGEHSVL
For the molecule B1, the results for the binding result in assay [1] and in assay [2] were “binds” and “binds weakly”, respectively.
